From the supplement of paper PMC12282887
Values are raw readings; no control value is given beside them.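 Maximum concentrations were near the MIC for antimicrobials, 500 µM for most other compounds, and as high as 1 mM for known inducer-like compounds. Deletion strains began with a tenfold smaller inoculum, and wells with growth under 10% of the overall median counted as non-growing.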

System: Escherichia coli BW25113
Experiment: growth (OD600 area under curve, 8 h) (OD600 x h); higher = more growth
Protocol: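 E. coli BW25113 reporter strains (wild type, ΔmarA, ΔsoxS, Δrob, each carrying one of 8 lux reporter plasmids) were grown in 40 µl LB in 384-well plates at 37°C, 800 rpm, with each compound at 4 two-fold concentrations, in biological duplicates. Growth is the baseline-corrected OD600 area under the curve over 8 h (0-8 h WT, 1-9 h deletion strains).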

CO[C@H]1/C=C/O[C@@]2(C)Oc3c(C)c(O)c4c(O)c(c(/C=N/N5CCN(C)CC5)c(O)c4c3C2=O)NC(=O)/C(C)=C\C=C\[C@H](C)[C@H](O)[C@@H](C)[C@@H](O)[C@@H](C)[C@H](OC(C)=O)[C@@H]1C [Rifampicin]
growth
Conditions | reporter plasmid: EVC | reporter plasmid: acrABp | reporter plasmid: marRABp | reporter plasmid: micFp | reporter plasmid: ompFp | reporter plasmid: robp | reporter plasmid: soxSp | reporter plasmid: tolCp
1 µg/ml, genetic background: wild type | 3.19 | 2.98 | 3.27 | 3.15 | 3.2 | 3.26 | 3.04 | 3.16
1 µg/ml, genetic background: ΔmarA | 3.24 | 4.18 | 3.7 | 3.21 | 3.55 | 3.92 | 2.85 | 2.93
1 µg/ml, genetic background: Δrob | 3.04 | 2.78 | 3.26 | 2.95 | 2.77 | 2.64 | 2.99 | 3.08
1 µg/ml, genetic background: ΔsoxS | 3.29 | 3.22 | 3.07 | 3.105 | 3.16 | 3.14 | 3.28 | 3.3
2.1 µg/ml, genetic background: wild type | 3.17 | 2.53 | 2.772 | 2.98 | 2.757 | 2.754 | 2.96 | 3.07
2.1 µg/ml, genetic background: ΔmarA | 2.844 | 3.8 | 3.53 | 3.07 | 3.13 | 3.4 | 2.78 | 2.566
2.1 µg/ml, genetic background: Δrob | 3.11 | 2.32 | 2.78 | 2.93 | 2.3 | 2.15 | 2.81 | 2.93
2.1 µg/ml, genetic background: ΔsoxS | 3.27 | 2.91 | 2.76 | 3.15 | 3.143 | 2.79 | 3.106 | 3.281
4.1 µg/ml, genetic background: wild type | 2.66 | 2.07 | 2.37 | 2.74 | 2.5 | 2.337 | 2.78 | 2.82
4.1 µg/ml, genetic background: ΔmarA | 2.56 | 3.24 | 2.79 | 2.28 | 2.5 | 2.92 | 2.37 | 2.15
4.1 µg/ml, genetic background: Δrob | 2.65 | 2.19 | 2.54 | 2.24 | 1.36 | 0.981 | 2.4 | 2.63
4.1 µg/ml, genetic background: ΔsoxS | 2.76 | 2.4 | 2.41 | 2.62 | 2.86 | 2.2 | 2.77 | 2.86
8.2 µg/ml, genetic background: wild type | 0.729 | 0.143 | 0.261 | 0.602 | 0.164 | 0.254 | 0.892 | 0.816
8.2 µg/ml, genetic background: ΔmarA | 0.0355 | -0.0201 | 0.00915 | 0.0661 | -0.0435 | -0.0116 | 0.0126 | 0.0211
8.2 µg/ml, genetic background: Δrob | 0.0297 | -0.12 | 0.02 | 0.0142 | -0.0564 | 0.00141 | 0.141 | 0.268
8.2 µg/ml, genetic background: ΔsoxS | 0.246 | 0.00943 | -0.0279 | 0.0577 | 0.0223 | -0.00222 | 0.0544 | 0.251
